Experimental data taken from publication doi:10.1101/2024.10.01.615909 (bioRxiv, 2024).
Results are given in words; binding and its absence hold for the method and conditions named. Binding seen in cells or lysates may run through a third protein. Binding can be weak; no strength is given. Sequences can lack the tags named with a protein.

Target: taxol-stabilized microtubules
Assay: co-sedimentation

B1: His8-SUMO (HS)-IQD2 (natural protein)
chain: MGKKAKWFSSVKKAFSPDSKKSKQKLAEGQNGVISNPPVVDNVRQSSSSPPPALAPREVRVAEVIVERNRDLSPPSTADAVNVTATDVPVVPSSSAPGVVRRATPTRFAGKSNEEAAAILIQTIFRGYLARRALRAMRGLVRLKLLMEGSVVKRQAANTLKCMQTLSRVQSQIRARRIRMSEENQARQKQLLQKHAKELAGLKNGDNWNDSIQSKEKVEANLLSKYEATMRRERALAYSYSHQQNWKNNSKSGNPMFMDPSNPTWGWSWLERWMAGRPLESSEKEQSNSNNDNAASVKGSINRNEAAKSLTRNGSTQPNTPSSARGTPRNKNSFFSPPTPSRLNQSSRKSNDDDSKSTISVLSERNRRHSIAGSSVRDDESLAGSPALPSYMVPTKSARARLKPQSPLGGTTQENEGFTDKASAKKRLSYPTSPALPKPRRFSAPPKVESGGVTVTNGAGS
binding: binds
